# Several values for one entry are separate records, joined by “and”; a condition that tells them apart may be missing. Identical values can stand only once. Among all 78,000 compounds or so, about 1,800 (2.3%) were called active. The inconclusive results got no clear call from the source; some entries with a clear call stand among them for comparison. Cut-off read from the data, not from the text of the source: active = inhibition above about 30%; inconclusive = mostly about 10% to 28%; inactive = weaker than that.
# Sequences of proteins named here, by UniProt entry; tags and fusion partners are left off. A change or cut given only in a name is not applied to a line headed by its entry.
# UniProt Q01638: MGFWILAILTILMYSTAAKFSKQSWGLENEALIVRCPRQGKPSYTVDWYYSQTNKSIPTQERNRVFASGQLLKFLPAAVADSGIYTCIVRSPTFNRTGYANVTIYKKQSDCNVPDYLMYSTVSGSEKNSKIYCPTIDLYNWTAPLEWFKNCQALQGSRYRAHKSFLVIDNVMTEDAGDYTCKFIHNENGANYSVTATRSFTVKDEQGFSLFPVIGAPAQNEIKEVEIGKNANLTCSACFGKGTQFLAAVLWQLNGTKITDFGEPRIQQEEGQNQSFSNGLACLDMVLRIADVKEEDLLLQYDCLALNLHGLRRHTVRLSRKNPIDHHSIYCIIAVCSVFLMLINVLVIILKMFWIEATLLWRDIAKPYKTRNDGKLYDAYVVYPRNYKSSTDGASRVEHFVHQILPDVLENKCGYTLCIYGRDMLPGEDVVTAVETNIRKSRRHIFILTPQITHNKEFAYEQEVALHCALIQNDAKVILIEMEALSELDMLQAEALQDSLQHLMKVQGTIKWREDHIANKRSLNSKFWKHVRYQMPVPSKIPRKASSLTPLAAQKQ
# Target: Interleukin-1 receptor-like 1 (Homo sapiens) (UniProt Q01638)
# Test: blocks human ST2 binding to IL-33, primary screen, biochemical, AlphaLISA (AID 1259354)
# Details: AlphaLISA ST2-Fc/biotin-IL-33 interaction, 1 h; at 17 µM, stronger effect = higher value
row,SMILES,inhibition
1,O=C(Nc1ccsc1)O[C@@H]1CO[C@H]2[C@@H]1OC[C@@H]2Nc1nccc(-c2cccc(F)c2)n1,inconclusive: 14%
2,COc1ccccc1C1C(C#N)=C(N)OC2=C1C(=O)CC(c1ccccc1)C2 (stereo not given),inconclusive: 10%
3,Cc1cccc(N(CC(=O)Nc2ccc(F)cc2)S(=O)(=O)c2ccccc2)c1C,active: 38%
4,Cc1ccc(N=Cc2nc(-c3ccccc3F)oc2O)c(C)c1,active: 33%
5,COC(=O)[C@@H]1C[C@@H](NC(=O)c2ccc3c(c2)nnn3C)CN1C,inactive
6,Cc1cc(NC(=O)c2ccc(Br)cc2)ccc1O,inconclusive: 16%
7,CC(C)c1ccc(-c2nccn2CCn2cccn2)cc1,inactive
8,Cc1nccn1-c1ccc(-c2ccc(C(C)N3CCOCC3)cc2)nn1 (stereo not given),inactive
9,Cc1nnc([C@H]2CCN(Cc3cccs3)C2)o1,inconclusive: 26%
10,Cc1cccn2c(=O)c3cc(C(=O)NCc4ccccc4Cl)n(C)c3nc12,inconclusive: 10%
11,COc1ccc(Nc2nnc(-c3cc4cc(OC)ccc4oc3=O)s2)cc1,inactive
12,O=C(C[C@@H]1O[C@H](CNC(=O)c2ccccc2)[C@@H](O)[C@H]1O)Nc1ccccc1,inconclusive: 15%
13,CCN1C(=O)CC(CC(=O)N(CC2CCC2)CC2CCCO2)(c2cccc(C(F)(F)F)c2)C1=O (stereo not given),inconclusive: 28%
14,Cc1cc(C)nc(N=C(NC(=O)C(C)(C)C)Nc2ccc(F)cc2)n1,inconclusive: 10%
15,CC(=O)N1CCc2c(sc(NC(=O)COc3ccc(Cl)cc3)c2-c2nc3ccccc3s2)C1,inconclusive: 17%
16,O=C(O)c1[nH]c2ccc(Cl)cc2c1CC(=O)N1CCN(c2ccccn2)CC1,inconclusive: 11%
17,COc1ccc(OC)c(CN(C(=O)[C@@H]2C[C@H](N)CN2C)C2CCCC2)c1,inconclusive: 19%
18,Cc1cccc(C2N3CC4(C)CN2CC(C)(C3)C4O)c1 (stereo not given),inactive
19,COc1ccc(-c2cc(C[C@H]3CNCC[C@H]3CC(=O)N3CCCCC3)no2)cc1,inconclusive: 16%
20,CN(C)c1cccc(Oc2nnnn2[C@H]2CO[C@H]3[C@@H]2OC[C@@H]3NC(=O)COc2ccccc2)c1,inconclusive: 17%

row,SMILES,inhibition
1,CCOCCCn1c(SCC(=O)NC2CCCCC2)nc2c(sc3ccccc32)c1=O,inconclusive: 18%
2,O=C1C2CCCN2C(c2ccc(Cl)cc2)N1c1nccs1 (stereo not given),inconclusive: 10%
3,CCn1ncnc1CN1CCN(c2cc(C)nc3ccccc23)CC1,inconclusive: 15%
4,O=C(O)c1c(NC(=O)c2cccc3ccccc23)sc2c1CCCC2,inactive
5,Cc1ccc(N(CC(=O)Nc2ccc(Cl)cc2)S(C)(=O)=O)c(C)c1,inactive
6,O=c1/c(=C/c2cccnc2)sc2n1CN(c1ccc3c(c1)OCO3)CN=2,inconclusive: 16%
7,COc1nc(C)cc(C)c1CNC(=O)CC1C(=O)NCCN1CC(C)C (stereo not given),inactive
8,O=C(CC1(O)C(=O)N(Cc2ccc(Cl)cc2)c2ccccc21)c1ccc2ccccc2c1 (stereo not given),inconclusive: 15%
9,O=C(CCCOc1ccccc1)n1cnc2ccccc21,inconclusive: 19%
10,O=C(Cn1cnc2c(cnn2-c2ccc(Cl)cc2)c1=O)N1CCCc2ccccc21,inactive
11,Cn1c(SCc2ccc(C(=O)NCCO)cc2)nc2sc3c(c2c1=O)CCC3,inactive
12,COc1ccc(C2CC(c3ccc(OCc4ccccc4)cc3)n3nc(N)nc3N2)cc1 (stereo not given),inconclusive: 14%
13,Cc1cccc(-n2c(-c3ccco3)nc3c(cnn3-c3ccccc3Cl)c2=O)c1,inconclusive: 19%
14,c1cncc(CNc2c3ccccc3nc3ccccc23)c1,inactive
15,COc1cc(OC)c(NC(=O)NCCc2nc3cccnc3n2Cc2ccc(C)cc2)cc1Cl,inconclusive: 11%
16,CCCCC(=O)N1c2ccccc2C(Nc2ccccc2)CC1C (stereo not given),inconclusive: 18%
17,c1cncc(-c2noc(-c3ccc4c(c3)OCO4)n2)c1,inactive
18,Cc1ccc(S(=O)(=O)Nc2ccc(NC(=O)c3ccc([N+](=O)[O-])cc3Cl)cc2)cc1,inconclusive: 17%
19,c1nc(SCc2ccc3c(c2)OCO3)c2c3c(sc2n1)CCC3,inactive
20,CC(Sc1ccc(Cl)cc1)C(=O)Nc1ccc2c(c1)OCCO2 (stereo not given),inactive

row,SMILES,inhibition
1,CCOC(=O)C1=C(N)Oc2cc(C)oc(=O)c2C1c1cccc(F)c1 (stereo not given),inactive
2,Cc1cnc(C)c(-c2cc(O)c3c(c2)CN(C(=O)C2C=CCN2)CCO3)n1 (stereo not given),inconclusive: 14%
3,c1ccc(CCCCNc2nc(-c3ccncc3)nc3c2CNC3)cc1,inactive
4,O=C1c2ccccc2C(=O)C1C1=Nc2ccccc2NC(c2ccccc2)C1 (stereo not given),active: 31% and inconclusive: 28%
5,Cc1[nH]nc2c1C(c1ccc(-c3ccccc3Cl)o1)C(C#N)=C(N)O2 (stereo not given),inactive
6,O=C(C1CCCN(C2CCN(c3cnc4ccccc4n3)CC2)C1)N1CCCC1 (stereo not given),inconclusive: 16%
7,CCCN(Cc1ccncc1)C(=O)C1COc2ccccc2O1 (stereo not given),inconclusive: 20%
8,COc1ccc(Nc2nc(Cl)nc(NC(C)C)n2)cc1,inconclusive: 12%
9,CCN(CC)CC(=O)Nc1c2c(nc3ccccc13)N(c1cccc(Cl)c1)CC2,inactive
10,CCO[C@H]1COC[C@@H]1NC(=O)CCc1scnc1C,inactive
11,CC(c1cc2ccccc2[nH]1)N(C)C(=O)c1cnn2c1CCCC2 (stereo not given),inactive
12,CCOc1ccccc1N1CCN(Cc2coc3ccccc3c2=O)CC1,inconclusive: 11%
13,O=C(O)c1cccnc1SC1CC(=O)N(c2ccc(N3CCOCC3)cc2)C1=O (stereo not given),inactive
14,Oc1c(C=NCc2ccc(F)cc2)[nH]c2ccc(Br)c(Cl)c12,active: 39%
15,Cc1ncc2c(c1CNC(=O)c1ccccc1F)CCN(C(=O)c1c(F)cccc1Cl)C2,inconclusive: 14%
16,Cn1cnnc1SCC(=O)Nc1ccc(Br)c2cccnc12,inconclusive: 21%
17,COc1ccc(C2C=C(Nc3ccc(F)cc3)C(=O)N2c2ccc(F)cc2)cc1OC (stereo not given),inconclusive: 16%
18,CC1=CC[C@@H]2CN(C(=O)CSc3nccn3C)C[C@@H]2C1,inconclusive: 13%
19,O=C(Nc1cc(Cl)ccc1Cl)c1noc2c1CCC2,inconclusive: 11%
20,Cc1occc1C(=O)Nc1cccc(NC(=O)c2ccoc2C)c1,inconclusive: 14%

# — PubChem BioAssay AID1259354 (Paczesny and Yang Labs, IUPUI and University of Michigan, 2018)
